Results from the supplement of paper PMC10849652.
The other results are listed elsewhere or left out.

By UniProt entry, the sequences of proteins in these tests, tags left out. Where a name states a change or a piece, a line headed by the entry shows the natural chain unless it says otherwise.
UniProt Q01432: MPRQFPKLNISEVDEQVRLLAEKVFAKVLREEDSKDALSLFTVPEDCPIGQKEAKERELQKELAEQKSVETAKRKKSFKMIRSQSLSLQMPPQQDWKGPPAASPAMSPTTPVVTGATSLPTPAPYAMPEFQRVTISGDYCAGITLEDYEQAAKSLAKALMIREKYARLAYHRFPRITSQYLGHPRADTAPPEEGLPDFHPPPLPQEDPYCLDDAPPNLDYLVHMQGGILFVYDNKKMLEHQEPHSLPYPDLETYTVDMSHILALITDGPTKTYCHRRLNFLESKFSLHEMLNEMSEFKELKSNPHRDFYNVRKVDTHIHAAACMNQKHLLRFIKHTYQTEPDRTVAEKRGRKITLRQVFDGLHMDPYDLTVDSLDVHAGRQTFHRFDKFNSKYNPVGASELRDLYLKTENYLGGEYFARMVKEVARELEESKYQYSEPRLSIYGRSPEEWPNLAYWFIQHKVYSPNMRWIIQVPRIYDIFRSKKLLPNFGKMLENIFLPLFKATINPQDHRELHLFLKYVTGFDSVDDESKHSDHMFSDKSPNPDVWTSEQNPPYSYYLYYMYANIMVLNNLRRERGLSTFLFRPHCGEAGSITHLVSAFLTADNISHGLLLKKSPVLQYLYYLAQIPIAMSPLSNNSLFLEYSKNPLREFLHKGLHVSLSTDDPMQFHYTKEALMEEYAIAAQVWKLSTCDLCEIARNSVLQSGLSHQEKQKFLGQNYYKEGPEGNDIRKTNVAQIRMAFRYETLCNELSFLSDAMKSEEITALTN
UniProt O43488: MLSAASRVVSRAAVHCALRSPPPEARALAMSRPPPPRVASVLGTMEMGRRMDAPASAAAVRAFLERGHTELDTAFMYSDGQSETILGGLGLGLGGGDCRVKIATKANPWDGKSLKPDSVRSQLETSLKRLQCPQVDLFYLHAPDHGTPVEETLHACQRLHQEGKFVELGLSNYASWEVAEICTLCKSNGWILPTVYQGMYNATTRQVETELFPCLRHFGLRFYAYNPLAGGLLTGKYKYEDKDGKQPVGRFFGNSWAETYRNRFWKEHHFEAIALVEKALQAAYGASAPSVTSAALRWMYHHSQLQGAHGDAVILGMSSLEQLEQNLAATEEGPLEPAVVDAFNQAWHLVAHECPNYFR
UniProt Q53H12: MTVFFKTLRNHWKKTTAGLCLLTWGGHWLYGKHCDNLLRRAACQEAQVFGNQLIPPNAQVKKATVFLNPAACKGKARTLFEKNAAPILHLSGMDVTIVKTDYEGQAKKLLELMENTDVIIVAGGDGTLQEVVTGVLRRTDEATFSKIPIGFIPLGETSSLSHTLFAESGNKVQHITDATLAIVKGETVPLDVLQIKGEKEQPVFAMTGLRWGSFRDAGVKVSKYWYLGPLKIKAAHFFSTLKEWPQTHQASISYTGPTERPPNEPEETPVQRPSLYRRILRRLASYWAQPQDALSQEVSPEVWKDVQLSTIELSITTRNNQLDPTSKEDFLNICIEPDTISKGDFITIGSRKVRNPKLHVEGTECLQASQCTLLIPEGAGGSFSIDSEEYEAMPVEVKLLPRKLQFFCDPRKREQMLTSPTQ
UniProt Q9BV57: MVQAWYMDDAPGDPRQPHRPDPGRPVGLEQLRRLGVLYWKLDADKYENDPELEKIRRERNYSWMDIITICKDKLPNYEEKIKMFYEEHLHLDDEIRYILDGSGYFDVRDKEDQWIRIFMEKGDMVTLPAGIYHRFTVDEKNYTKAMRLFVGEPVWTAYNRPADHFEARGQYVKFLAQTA
UniProt Q9BQI0: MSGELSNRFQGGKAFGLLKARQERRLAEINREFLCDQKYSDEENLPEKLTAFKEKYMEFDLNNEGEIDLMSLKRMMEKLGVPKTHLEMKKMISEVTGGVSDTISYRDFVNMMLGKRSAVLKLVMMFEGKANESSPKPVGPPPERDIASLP
UniProt P13196: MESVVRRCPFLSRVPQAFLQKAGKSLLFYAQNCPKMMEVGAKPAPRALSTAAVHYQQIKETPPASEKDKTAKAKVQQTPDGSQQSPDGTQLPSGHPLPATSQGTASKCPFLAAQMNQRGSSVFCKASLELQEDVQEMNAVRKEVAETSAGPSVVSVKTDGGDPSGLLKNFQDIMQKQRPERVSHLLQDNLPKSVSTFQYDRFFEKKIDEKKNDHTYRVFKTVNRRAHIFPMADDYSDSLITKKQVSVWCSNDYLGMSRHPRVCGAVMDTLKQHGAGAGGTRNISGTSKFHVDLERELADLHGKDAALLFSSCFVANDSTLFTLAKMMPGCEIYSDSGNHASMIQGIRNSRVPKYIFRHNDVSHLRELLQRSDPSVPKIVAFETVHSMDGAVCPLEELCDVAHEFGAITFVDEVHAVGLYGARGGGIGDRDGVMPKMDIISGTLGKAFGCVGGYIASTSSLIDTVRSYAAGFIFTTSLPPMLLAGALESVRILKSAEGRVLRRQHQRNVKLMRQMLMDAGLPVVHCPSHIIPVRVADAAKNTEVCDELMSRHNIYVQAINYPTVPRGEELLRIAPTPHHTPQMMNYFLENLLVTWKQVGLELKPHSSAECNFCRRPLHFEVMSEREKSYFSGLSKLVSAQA
UniProt P13716: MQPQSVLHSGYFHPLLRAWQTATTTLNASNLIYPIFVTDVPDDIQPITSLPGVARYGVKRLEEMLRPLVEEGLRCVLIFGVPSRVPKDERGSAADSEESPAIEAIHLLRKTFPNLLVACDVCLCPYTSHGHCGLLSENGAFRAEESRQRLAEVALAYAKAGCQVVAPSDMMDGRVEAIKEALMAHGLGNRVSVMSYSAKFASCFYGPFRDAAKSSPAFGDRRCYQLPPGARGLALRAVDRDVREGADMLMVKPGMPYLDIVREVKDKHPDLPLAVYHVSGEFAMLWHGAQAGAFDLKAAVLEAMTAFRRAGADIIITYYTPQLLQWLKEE
UniProt Q02952: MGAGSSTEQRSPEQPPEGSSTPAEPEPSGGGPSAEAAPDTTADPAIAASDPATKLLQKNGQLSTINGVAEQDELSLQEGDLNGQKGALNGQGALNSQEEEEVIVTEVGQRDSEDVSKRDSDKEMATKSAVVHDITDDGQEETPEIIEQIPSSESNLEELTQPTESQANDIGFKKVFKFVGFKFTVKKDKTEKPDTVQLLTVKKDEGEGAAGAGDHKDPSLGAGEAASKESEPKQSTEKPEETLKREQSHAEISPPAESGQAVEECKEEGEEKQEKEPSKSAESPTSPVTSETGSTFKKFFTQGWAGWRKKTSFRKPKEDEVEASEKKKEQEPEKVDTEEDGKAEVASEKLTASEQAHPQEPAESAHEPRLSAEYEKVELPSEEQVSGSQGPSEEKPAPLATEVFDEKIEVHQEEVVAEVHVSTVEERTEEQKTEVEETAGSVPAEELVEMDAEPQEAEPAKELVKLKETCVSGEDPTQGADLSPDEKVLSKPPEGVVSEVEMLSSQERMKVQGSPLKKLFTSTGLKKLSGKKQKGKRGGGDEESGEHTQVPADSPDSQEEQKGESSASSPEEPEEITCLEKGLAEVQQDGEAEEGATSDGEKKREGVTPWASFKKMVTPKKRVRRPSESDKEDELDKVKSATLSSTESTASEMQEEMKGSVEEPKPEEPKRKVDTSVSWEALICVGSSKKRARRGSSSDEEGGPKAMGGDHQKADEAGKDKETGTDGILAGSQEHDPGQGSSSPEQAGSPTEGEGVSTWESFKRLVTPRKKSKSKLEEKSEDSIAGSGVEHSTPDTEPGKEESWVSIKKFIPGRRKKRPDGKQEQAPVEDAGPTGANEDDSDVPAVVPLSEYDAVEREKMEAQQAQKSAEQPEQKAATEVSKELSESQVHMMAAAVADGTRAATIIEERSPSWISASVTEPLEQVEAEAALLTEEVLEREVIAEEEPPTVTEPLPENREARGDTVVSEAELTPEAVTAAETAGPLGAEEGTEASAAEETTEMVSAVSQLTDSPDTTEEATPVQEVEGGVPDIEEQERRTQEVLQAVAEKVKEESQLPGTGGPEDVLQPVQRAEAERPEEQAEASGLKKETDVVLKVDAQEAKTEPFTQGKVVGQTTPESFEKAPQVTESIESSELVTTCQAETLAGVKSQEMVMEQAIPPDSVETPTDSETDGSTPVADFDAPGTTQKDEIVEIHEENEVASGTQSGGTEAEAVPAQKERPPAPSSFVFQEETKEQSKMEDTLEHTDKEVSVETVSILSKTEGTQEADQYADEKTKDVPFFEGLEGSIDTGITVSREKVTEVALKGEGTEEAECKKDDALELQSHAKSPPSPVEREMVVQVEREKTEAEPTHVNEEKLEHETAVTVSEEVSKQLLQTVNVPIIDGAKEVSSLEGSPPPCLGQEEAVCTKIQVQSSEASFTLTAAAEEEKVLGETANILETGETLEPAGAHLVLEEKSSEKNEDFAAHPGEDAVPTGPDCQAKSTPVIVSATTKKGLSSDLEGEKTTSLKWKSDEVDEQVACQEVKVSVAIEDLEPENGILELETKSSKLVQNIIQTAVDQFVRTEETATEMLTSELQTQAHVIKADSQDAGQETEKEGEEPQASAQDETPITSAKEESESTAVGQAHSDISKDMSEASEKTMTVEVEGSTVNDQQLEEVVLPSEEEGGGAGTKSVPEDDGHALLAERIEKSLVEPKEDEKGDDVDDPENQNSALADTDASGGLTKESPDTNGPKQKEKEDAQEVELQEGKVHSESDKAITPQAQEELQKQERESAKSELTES
UniProt P49419: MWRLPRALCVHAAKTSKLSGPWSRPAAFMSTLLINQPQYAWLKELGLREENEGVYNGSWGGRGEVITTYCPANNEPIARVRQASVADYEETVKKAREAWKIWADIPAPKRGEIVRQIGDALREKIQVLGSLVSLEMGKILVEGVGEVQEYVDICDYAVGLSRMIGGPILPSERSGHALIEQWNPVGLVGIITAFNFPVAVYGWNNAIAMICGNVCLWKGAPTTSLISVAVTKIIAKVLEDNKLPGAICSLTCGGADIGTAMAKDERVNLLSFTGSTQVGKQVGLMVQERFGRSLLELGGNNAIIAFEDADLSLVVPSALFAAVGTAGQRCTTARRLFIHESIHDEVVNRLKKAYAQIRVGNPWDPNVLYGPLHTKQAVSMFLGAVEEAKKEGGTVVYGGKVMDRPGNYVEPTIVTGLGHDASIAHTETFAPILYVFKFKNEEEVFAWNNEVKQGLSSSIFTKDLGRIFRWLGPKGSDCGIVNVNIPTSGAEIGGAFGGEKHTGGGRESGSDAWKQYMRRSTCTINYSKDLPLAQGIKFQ
UniProt Q9H553: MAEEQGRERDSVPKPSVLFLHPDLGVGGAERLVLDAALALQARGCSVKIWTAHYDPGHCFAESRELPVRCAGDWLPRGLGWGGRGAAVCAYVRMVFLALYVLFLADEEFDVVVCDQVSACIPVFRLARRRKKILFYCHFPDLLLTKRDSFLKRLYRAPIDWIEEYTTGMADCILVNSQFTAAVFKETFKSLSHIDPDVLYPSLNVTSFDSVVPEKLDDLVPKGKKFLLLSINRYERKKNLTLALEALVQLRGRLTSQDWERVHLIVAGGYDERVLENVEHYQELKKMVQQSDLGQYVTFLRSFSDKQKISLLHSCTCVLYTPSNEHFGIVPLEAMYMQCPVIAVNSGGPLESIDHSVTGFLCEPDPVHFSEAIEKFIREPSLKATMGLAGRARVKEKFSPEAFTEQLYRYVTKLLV
UniProt Q96HN2, whole entry, looked up: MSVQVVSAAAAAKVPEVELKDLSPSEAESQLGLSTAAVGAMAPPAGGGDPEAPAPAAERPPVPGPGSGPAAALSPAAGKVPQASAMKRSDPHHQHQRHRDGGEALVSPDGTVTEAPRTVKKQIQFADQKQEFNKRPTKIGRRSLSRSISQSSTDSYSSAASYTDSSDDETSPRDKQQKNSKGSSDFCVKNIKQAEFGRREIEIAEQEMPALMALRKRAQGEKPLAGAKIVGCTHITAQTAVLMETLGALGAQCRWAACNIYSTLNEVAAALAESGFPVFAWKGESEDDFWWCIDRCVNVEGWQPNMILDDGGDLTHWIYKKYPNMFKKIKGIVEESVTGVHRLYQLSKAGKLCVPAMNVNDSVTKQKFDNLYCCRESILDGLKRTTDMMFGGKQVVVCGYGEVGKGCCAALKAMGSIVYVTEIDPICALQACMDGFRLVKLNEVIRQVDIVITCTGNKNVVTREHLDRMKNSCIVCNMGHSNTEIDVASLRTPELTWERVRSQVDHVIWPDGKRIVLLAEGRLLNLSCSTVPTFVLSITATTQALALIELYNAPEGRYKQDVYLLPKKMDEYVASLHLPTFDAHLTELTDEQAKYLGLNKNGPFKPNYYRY
UniProt Q9NYG5, whole entry, looked up: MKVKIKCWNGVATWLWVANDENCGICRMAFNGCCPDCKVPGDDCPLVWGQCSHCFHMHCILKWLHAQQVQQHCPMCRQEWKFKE
UniProt P00568: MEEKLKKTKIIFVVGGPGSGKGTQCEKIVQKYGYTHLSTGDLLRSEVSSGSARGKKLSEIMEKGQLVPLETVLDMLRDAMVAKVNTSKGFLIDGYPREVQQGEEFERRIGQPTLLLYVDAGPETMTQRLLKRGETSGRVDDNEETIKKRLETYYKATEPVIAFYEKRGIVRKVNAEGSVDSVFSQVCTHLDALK

Compound: c1cn2cc(-c3ccc4cn[nH]c4c3)nc(Nc3ccc(N4CCOCC4)cc3)c2n1 [entospletinib]
Test: log2 fold change, soluble protein after heating vs DMSO (PISA); higher = thermal stabilisation; K562 cells, 10 uM, 30 min; active = over 0.2 and 3.5 SD of the protein, either way, in both replicates (recomputed)
Summary of the method: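 K562 cells at 2×10^6 cells/mL were treated for 30 min with 10 μM compound, and aliquots were heated for 3 min over 48°C-58°C before pooling. Extraction used PBS with 0.5% NP-40 at 4°C, and soluble protein was the supernatant after 21,000xg for 90 min, measured by TMTpro 16plex LC-MS/MS with channel sums equalised. Thermal stability values, relative to control samples and from duplicates, are log2 fold changes.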

In the case of ALDH1A1 (UniProt P00352), the log2 fold change is reported as inactive: 0.065.
With AIMP2 (UniProt Q13155) the log2 fold change was inactive: 0.113.
In the case of AFG3L2 (UniProt Q9Y4W6), the log2 fold change is reported as inactive: -0.068.
With AGPAT2 (UniProt O15120) the log2 fold change was inactive: 0.136.
AMPD3 isoform 4 (UniProt Q01432) was tested, and the log2 fold change was inactive: 0.032.
In the case of AKR7A2 (UniProt O43488), the log2 fold change is reported as inactive: -0.017.
AGTRAP (UniProt Q6RW13) was tested, and the log2 fold change was inactive: 0.05.
ADSS2 (UniProt P30520) was tested, and the log2 fold change was inactive: 0.033.
ALDH4A1 (UniProt P30038) was tested, and the log2 fold change was inactive: 0.017.
For AKTIP isoform 2 (UniProt Q9H8T0), the log2 fold change was inactive: -0.207.
For ADPGK (UniProt Q9BRR6), the log2 fold change was inactive: 0.038.
For AMDHD2 isoform 3 (UniProt Q9Y303), the log2 fold change was inactive: -0.004.
In the case of AKAP1 (UniProt Q92667), the log2 fold change is reported as inactive: -0.01.
For AGK (UniProt Q53H12), the log2 fold change was inactive: 0.017.
In the case of ADI1 (UniProt Q9BV57), the log2 fold change is reported as inactive: -0.064.
With ADCK5 (UniProt Q3MIX3) the log2 fold change was inactive: 0.104.
AMDHD2 (UniProt Q9Y303) was tested, and the log2 fold change was inactive: 0.079.
AIF1L isoform 2 (UniProt Q9BQI0) was tested, and the log2 fold change was inactive: 0.202.
With ALAS1 (UniProt P13196) the log2 fold change was inactive: 0.06.
ALAD isoform 2 (UniProt P13716) was tested, and the log2 fold change was inactive: -0.001.
AKAP12 (UniProt Q02952) was tested, and the log2 fold change was inactive: -0.025.
With AMBP (UniProt P02760) the log2 fold change was inactive: 0.322.
In the case of ALDOC (UniProt P09972), the log2 fold change is reported as inactive: -0.013.
ALDH1A2 (UniProt O94788) was tested, and the log2 fold change was inactive: 0.067.
ALDOC (UniProt J3QKP5) was tested, and the log2 fold change was inactive: 0.409.
For AMN1 (UniProt Q8IY45), the log2 fold change was inactive: 0.056.
For AMPD2 (UniProt Q01433), the log2 fold change was inactive: 0.023.
In the case of AIDA (UniProt Q96BJ3), the log2 fold change is reported as inactive: -0.071.
With ALG10B (UniProt Q5I7T1) the log2 fold change was inactive: 0.05.
In the case of AIFM1 (UniProt O95831), the log2 fold change is reported as inactive: 0.001.
In the case of ALDH7A1 (UniProt P49419), the log2 fold change is reported as inactive: -0.009.
With ALG13 (UniProt Q9NP73) the log2 fold change was inactive: -0.03.
AK4 (UniProt P27144) was tested, and the log2 fold change was inactive: -0.002.
With ALDH5A1 isoform 2 (UniProt P51649) the log2 fold change was inactive: 0.023.
ADIPOR1 (UniProt Q96A54) was tested, and the log2 fold change was inactive: 0.156.
For ALG2 (UniProt Q9H553), the log2 fold change was inactive: 0.037.
In the case of AGFG1 isoform 4 (UniProt P52594), the log2 fold change is reported as inactive: -0.057.
For ANAPC15 isoform 2 (UniProt P60006), the log2 fold change was inactive: 0.099.
With AHCYL2 (UniProt Q96HN2) the log2 fold change was inactive: 0.037.
In the case of ADO (UniProt Q96SZ5), the log2 fold change is reported as inactive: 0.01.
For AK2 isoform 2 (UniProt P54819), the log2 fold change was inactive: 0.04.
In the case of AFF1 isoform 2 (UniProt P51825), the log2 fold change is reported as inactive: 0.246.
With AGA (UniProt P20933) the log2 fold change was inactive: -0.116.
For AGL (UniProt P35573), the log2 fold change was inactive: 0.303.
In the case of ALG9 isoform 3 (UniProt Q9H6U8), the log2 fold change is reported as inactive: -0.06.
For AGO2 (UniProt Q9UKV8), the log2 fold change was inactive: 0.008.
For ALG8 (UniProt Q9BVK2), the log2 fold change was inactive: 0.056.
In the case of ANAPC11 (UniProt Q9NYG5), the log2 fold change is reported as inactive: 0.08.
In the case of AKIRIN2 (UniProt Q53H80), the log2 fold change is reported as inactive: -0.092.
For AGO4 (UniProt Q9HCK5), the log2 fold change was inactive: 0.027.
For ALDH16A1 (UniProt Q8IZ83), the log2 fold change was inactive: -0.022.
With AKAP11 (UniProt Q9UKA4) the log2 fold change was inactive: 0.166.
For ANAPC1 (UniProt Q9H1A4), the log2 fold change was inactive: 0.005.
For ALG1 (UniProt Q9BT22), the log2 fold change was inactive: 0.074.
With AHNAK (UniProt Q09666) the log2 fold change was inactive: 0.01.
For AKAP9 isoform 6 (UniProt Q99996), the log2 fold change was inactive: -0.119.
For AFTPH isoform 9 (UniProt Q6ULP2), the log2 fold change was inactive: 0.03.
For ADGRD1 isoform 4 (UniProt Q6QNK2), the log2 fold change was inactive: -0.428.
With AK1 (UniProt P00568) the log2 fold change was inactive: 0.063.
